Assay results: ChEMBL document CHEMBL2163215, “Mitigating hERG Inhibition: Design of Orally Bioavailable CCR5 Antagonists as Potent Inhibitors of R5 HIV-1 Replication” (ACS Med Chem Lett, 2012)

Assay: Toxicity in rat administered for 7 days
Settings: in vivo

In the case of CONC(=O)N(Cc1ccsc1)C1CCN([C@H](C)CCNC(=O)c2c(C)cc(Cl)nc2C)CC1, the NOAEL at 168 h is reported as at least 400 mg/kg.
In the case of COCC(=O)N(Cc1ccsc1)C1CCN([C@H](C)CCNC(=O)c2c(C)cc(Cl)nc2C)CC1, the NOAEL at 168 h is reported as at least 400 mg/kg.
